Reference: patent publication US20080119424A1 (published 2008)
These are yes or no findings as the source states them, for the method shown. In cells and extracts the contact can be indirect. Some results given as binding are weak or reduced against the parent protein; the word gives no strength.

Protein sequences, listed by entry. Tags and fused reporters are not part of them. Lines headed by an entry give the natural chain unless they say otherwise; changes in a name come on top.
UniProt P78395: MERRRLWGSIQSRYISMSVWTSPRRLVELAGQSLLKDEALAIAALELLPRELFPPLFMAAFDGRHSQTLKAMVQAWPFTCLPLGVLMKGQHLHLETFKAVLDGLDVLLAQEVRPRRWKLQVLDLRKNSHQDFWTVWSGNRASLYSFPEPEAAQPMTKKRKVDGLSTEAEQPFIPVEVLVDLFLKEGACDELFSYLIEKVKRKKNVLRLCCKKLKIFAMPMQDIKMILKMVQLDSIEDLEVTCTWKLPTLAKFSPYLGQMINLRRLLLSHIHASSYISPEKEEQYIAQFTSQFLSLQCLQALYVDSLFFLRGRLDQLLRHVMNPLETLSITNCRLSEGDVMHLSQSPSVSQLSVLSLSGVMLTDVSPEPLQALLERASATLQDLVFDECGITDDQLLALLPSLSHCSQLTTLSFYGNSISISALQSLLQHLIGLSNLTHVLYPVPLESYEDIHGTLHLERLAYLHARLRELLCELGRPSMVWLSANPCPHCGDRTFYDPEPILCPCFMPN

Biological target: T1, endogenous RARα (Retinoic Acid Receptor alpha) of mouse cells (mouse (endogenous in mouse embryonic fibroblasts)) (UniProt P11416)
T1 sequence (looked up): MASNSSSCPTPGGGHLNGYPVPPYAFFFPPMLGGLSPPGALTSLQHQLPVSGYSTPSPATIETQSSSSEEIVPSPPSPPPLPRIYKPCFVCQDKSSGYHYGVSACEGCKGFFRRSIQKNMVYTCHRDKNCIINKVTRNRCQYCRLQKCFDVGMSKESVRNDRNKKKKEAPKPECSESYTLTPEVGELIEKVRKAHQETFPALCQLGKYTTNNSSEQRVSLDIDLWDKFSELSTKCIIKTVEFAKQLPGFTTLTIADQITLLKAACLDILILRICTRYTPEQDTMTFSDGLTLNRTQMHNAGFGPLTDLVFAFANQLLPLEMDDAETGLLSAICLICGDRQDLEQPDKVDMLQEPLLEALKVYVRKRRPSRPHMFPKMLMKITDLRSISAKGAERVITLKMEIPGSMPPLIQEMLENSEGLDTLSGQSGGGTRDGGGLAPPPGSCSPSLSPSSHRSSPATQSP
Test: co-immunoprecipitation on IgG beads from Ras^V12 MEF lysates, immunoblot for RARα, before and after 1 µM RA

## TAP-tagged PRAME (from UniProt P78395 1-509)
  binding: binds
